The RNAGym collection of RNA variant scans (doi:10.1126/science.aae0568)
Variants at the background level are over-represented here.

B1: tRNA (parent)
chain: GUUCCGUUGGCGUAAUGGUAACGCGUCUCCCUCCUAAGGAGAAGACUGCGGGUUCGAGUCCCGUACGGAACG

Variants of: B1
Experiment: yeast fitness relative to wild type (ratio to wild type); higher = fitter; tRNA-Arg(CCU), competitive growth, 37 C, YPD
Summary of the method: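 Start and end populations of a pooled competition were compared by 100-nucleotide paired-end sequencing of gene amplicons. The Saccharomyces cerevisiae strains carried tRNA-Arg(CCU) gene variants at the native genomic locus, synthesised with a 3% per-site mutation rate at 69 sites, and competed in YPD at 37°C for 24 hours in six parallel replicates. Darwinian fitness relative to wild type was based on the change in genotype frequencies. Genotypes required ≥ 100 starting reads, and estimates < 0.5 were set to 0.5.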

Point of comparison: GUUCCGUUGGCGUAAUGGUAACGCGUCUCCGUCCUAAGGAGAAAACUGCGCGUUCGAGUCCCGUGCGGAACG, yeast fitness 0.537. Against it:
- GUUCCGUUGGCGUAAUGGUAACGUGUCUCCCUCCUAAGGAGAAGACUGCGGGUUCGAGACCCGUUCGGAACG — lower, ≤ 0.5
- GUUCCGUUGGCGUAAUGGUAAUGCGUCUCCCACCUAAGGAGAAGACUGCGGGUUCCAGUACGGUACGGAACG — lower, ≤ 0.5
- GUUCCGUUGGCGUAAUGGUAAAGCGUCCCCCUCCUAAGGAGAAGACUGCGGGUUCGAGUACCGUACGGAACG — lower, ≤ 0.5
- GUCCCGUUGGCGUAAUGGUAACGCGUCUCCCUCCUUAGAAGAAGACUGCGGGUUCGAGUACCGUACGGAACG — lower, ≤ 0.5
- GUUCCGUUGGCGUAAUGGUAACGCCUCUCCCUCCUAAGGAGAAGACUGCGAGUUCGAGUCCCGUACGGAACG — higher, 1.01
- GUUCCGUUGGCGUAAUGGUAACGGAUCUCCCUCCUAAGGAGAGGACUGCGGGUUCGAGUCCCGUACGGAACG — lower, ≤ 0.5
- GUUCCGUUGGCGUCAUGGGAACGCGUCUCCGUUCUAAGGAGGAGACUACGGAUUCGAGUCCCGUACGGAACG — lower, ≤ 0.5
- GUUCCCUUGGCGUAAUGGUAACGCGUGUCCCUCCUAAGGAGUAGACUGCGGGUUCGAGUCCCGUACGGAACG — lower, ≤ 0.5
- GUUCCGUUGGCGUAAUGGUAACGCGUCUCCCUGCUAAGGAGAAGACUGCGGGUUCGAGUCCCGUAGGGAGCG — higher, 0.54
- GUUCCGUUGGCGUAAUGGUAACGCGUCUCCCUCCUAAGGUGAAGACUGCGGGUUCGAGUCCCGUACGGAGCG — higher, 0.934
- GUUCCGUUGGCCUAAUGGUAACGCGUCUCCCUCCUCAGGUGAAGACUGCGGGUUCGAGUCCCGUACGGAACG — lower, ≤ 0.5
- GUUAGGUUGGCGUAAUGGUAAUGCGUCUCCCUCCUAAGGAGAAGACUGCGGGUUCGAGUCCCGUACGGAACG — lower, ≤ 0.5
- GUUCGGUUGGCGUAAUGGUAACGCGUCCCCGUCCUAAGGAGAAGACUGCGGGUUCGAGUCCUGUACGGAACG — lower, ≤ 0.5
- GUUCCGUUGGCGUGAUGAUAACGCGUCUCCCUCGUAAGGAGACGACUGCGGGUUCGAGUCCCGUACGGAACG — lower, ≤ 0.5
- GUUCCGUUGGCGUAAUGGUAACGCGUCUCCCUCCGAAGGAGAAGACUGAGGGUUCGAGUCCCGUACGGAACG — higher, 0.595
- GUUCCGUUGGAGUAAUGGUAACGCGUCUCCCUCCUAAGGAGAAGACGGCGGGUUCGAGUCCUGUCCGGAACG — lower, ≤ 0.5
- GUUCCGUUGGCGUAAUGGAAACGCGUCUCUCUCCUAAGGAGAAGACAGCGGGUUCGAGUCCCGUACCGAACG — lower, ≤ 0.5
- GUUCCGAGGGCGUAAUGGUAAUGCGUCUCUCUCCUAAGGAGGAGACUGCGGGUUCGAGUCACGUACGGAACG — lower, ≤ 0.5
- GGUCCGUUGGCGUAAUGGUAACGCGUCUCCCUCAUAAGGAGAAGACUGAGGGUUCGAGUCCCUUACAGAACG — lower, ≤ 0.5
- GUUCCCUUGGCGUAAUGGUCGCGCGUCUCCCUCCUAAGGAGAAGACUGCGGGUUCGAGUCCCGUAGGGAACG — lower, ≤ 0.5
- GUUCCGUUGGCGUAAUGGUAACGCGUCUCCCUCGUAAGGAGUAGACUGCGGGUUCGAGUCCCGUACGGAACG — higher, 0.621
- GUUUCGUUGGCGUAAUGGUAUCGCGUCUCCCUCCUAAGGAGAAGACUGCGGGUACGAGUCCCGUACGGAGCG — lower, ≤ 0.5
- GUUCCGUUGGCGUAAUGGUAACGCGUCUCCCUCCUAAGGAGAAAACUGCGGGUUCGAGUUCAGUACGGAACG — lower, ≤ 0.5
- GUUCCGUUGGCGUAAUGGUAACGCGUCUCCCUUCUCAGGAGAAGACUGCGGGUUCGAGUCCCGCACGGAACG — higher, 0.648
- GUUUCGUUGGCGUAAUGGUAACGUGUCUCCCUCCUAAGGAGAGGACUGCGGGUUCGAGUCCCGUGCGGAACG — lower, ≤ 0.5
- GUUCCGUUGACGUAAUGGUAACGCGUCACCCUCCUAAGGAGUAGACUGCGGGUUCGAGUCCCGUACGGAACG — lower, ≤ 0.5
- GUUCCGUUGGCGUAAUGGUAACGGGUCUCUCUCCUAAGGAGAACACUGCGGGUUCGAGUCCCGUACGGAACG — lower, ≤ 0.5
- GUUCUGUUGGCGUAAUGGUAGCGCGUCUCACGCCUAAGGAGAAGACUGCGGGUUCGAGUCCCGUACAGCACG — lower, ≤ 0.5
- GUUCCGUUGGCGUCAUGGUAACGCGUCUCCCUCCUGAGGAGAAGACUGCGGGUUCGAGUCCCGUACGGCACG — lower, ≤ 0.5
- GUGACGUUGGCGUAAUGGUAACGCGUCUCCCUCCUAAGGAGAAGACUGCGGGUUCGAGUCCAGUACGGAACG — lower, ≤ 0.5
- GUUCCCGUGGCGUAAUGGUAACGCGUCUCCCUCCUAAGGAGAUGACUGCGGGUUCGAGUCCCGUCCGGAACG — higher, 0.825
- GUUCCGUUGGCGUAAUGGUAACGCGUCUCCCUCCUAAGGCGAAGACUGGGGGUUCGAGUCCCGUACGGAACG — higher, 0.804
- GUUCCGUUGGCGUAAUGCUAAGGCGUCUCCCUCCUAAGGAGAAGACUGCGGGUUCAAGUACCGUACGGAACG — lower, ≤ 0.5
- GUUCCGUUGGCGUAAUGAUAACGCGUCUCCCUCCUAAGGAGAAGAUUGCGGGUUCGAGUUCCGUACGGAACG — lower, ≤ 0.5
- GUUACGUUGGCGUAAUGGUAACGCGUCCCCCUCCUAAGGAGAAGACUGCGGGUUCGGGUCACGUACGGAACG — lower, ≤ 0.5
- GUUCCGUUGGCGUGAUGGUGACGCGUCUCCCUCCUAAGGAGUAGACUGCGGGUUCGAGUCCCGUACGGAACG — higher, 0.696
